# Measurements: PubChem BioAssay AID1259354 (Paczesny and Yang Labs, IUPUI and University of Michigan, 2018)
# Sequences of proteins named here, by UniProt entry; tags and fusion partners are left off. A change or cut given only in a name is not applied to a line headed by its entry.
# UniProt Q01638: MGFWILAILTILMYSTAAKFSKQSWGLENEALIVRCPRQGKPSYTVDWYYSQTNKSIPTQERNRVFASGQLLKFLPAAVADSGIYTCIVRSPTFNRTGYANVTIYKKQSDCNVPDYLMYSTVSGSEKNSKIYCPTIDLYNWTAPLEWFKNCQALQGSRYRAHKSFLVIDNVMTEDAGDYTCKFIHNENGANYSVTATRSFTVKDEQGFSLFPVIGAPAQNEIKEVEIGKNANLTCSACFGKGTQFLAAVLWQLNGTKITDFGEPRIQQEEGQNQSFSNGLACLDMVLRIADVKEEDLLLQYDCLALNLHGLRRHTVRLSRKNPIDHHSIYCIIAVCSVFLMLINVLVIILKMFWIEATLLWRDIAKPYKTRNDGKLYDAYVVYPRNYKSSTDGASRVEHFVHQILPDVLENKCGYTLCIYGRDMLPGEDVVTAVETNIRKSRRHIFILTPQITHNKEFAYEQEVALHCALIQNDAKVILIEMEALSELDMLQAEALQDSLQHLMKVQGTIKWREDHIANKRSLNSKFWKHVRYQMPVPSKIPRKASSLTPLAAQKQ
# The campaign covered roughly 78,000 compounds. About 1,800 (2.3%) were called active. This list was built around the results that the source calls inconclusive (neither active nor inactive); the mix of calls is not that of the screen. No stated cut-off is given here; in the data, active means inhibition above about 30%; inconclusive means mostly about 10% to 28%; inactive means weaker than that.
# Target: Interleukin-1 receptor-like 1 (Homo sapiens) (UniProt Q01638)
# Test: blocks human ST2 binding to IL-33, primary screen, biochemical, AlphaLISA (AID 1259354)
# Conditions: AlphaLISA ST2-Fc/biotin-IL-33 interaction, 1 h; at 17 µM, active compounds read high
row,SMILES,inhibition
1,CNC(=O)[C@@H]1C[C@H](N)CN1C(=O)C1Cc2ccccc2C1,inactive
2,COc1ccc(C2CC(=O)N3CN(c4cccc(Cl)c4)CSC3=C2C#N)cc1 (stereo not given),inactive
3,CCOC(=O)c1sc(=Nc2ccccc2)n(Cc2ccccc2)c1C,inactive
4,CC(C)C1N=C2c3ccccc3N=C(SCC(=O)c3ccccc3)N2C1=O (stereo not given),inconclusive: 21%
5,CCn1c(CC2CCN(C/C(C)=C/c3ccco3)CC2)n[nH]c1=O,inconclusive: 10%
6,COc1cccc(-c2cccc(NC(=O)C3CCN(Cc4csc(C(C)=O)c4)CC3)c2)c1,inconclusive: 10%
7,O=C1NC(=Nc2ccccc2Cl)S/C1=C/c1ccc(F)cc1,inconclusive: 25%
8,COc1ccc(OC)c(N2C(N)=C(C#N)C(c3ccc(OC)c(O)c3)C3=C2CC(C)(C)CC3=O)c1 (stereo not given),inconclusive: 10%
9,COc1ccc(C(C)(C)C)cc1S(=O)(=O)N1CCN(c2nc(C)cc(Nc3ccccc3)n2)CC1,inconclusive: 15%
10,COc1cc(Br)cc(/C=C2\Sc3ccccc3C2=O)c1O,active: 60%
11,O=C(N[C@@H]1c2ccccc2C2(CCNCC2)[C@H]1OCc1cccnc1)c1ccco1,inconclusive: 16%
12,COc1ccc(/C=c2\sc3n(c2=O)CN(c2ccc(C)cc2)CN=3)cc1,active: 31%
13,Cc1ccnc(NC(=O)CCc2nc(-c3ccccc3F)no2)c1,inconclusive: 10%
14,CCc1ccc(CNc2ccc3c(c2)ncn3CC)cc1,inconclusive: 13%
15,Cc1ccc(C(C)C)cc1OCCNCCN,inconclusive: 26%
16,CCCCCCCC/C=C\CCCCCCCC(=O)NCCc1ccc(O)c(O)c1,inconclusive: 18%
17,Cc1cc(C)cc(OCCCn2cc(/C=C3/C(=N)N4C=CSC4=NC3=O)c3ccccc32)c1,inconclusive: 12%
18,Cn1ccnc1CN(C(=O)c1ccc(C#CC(C)(C)O)o1)C1CC1,inconclusive: 18%
19,Cc1cc(C)n(Cc2cccc(F)c2)c(=O)c1C#N,inconclusive: 10%
20,O=C(Nc1cccc(-n2cccn2)c1)C1CCCN(Cc2ccc3c(c2)CCO3)C1 (stereo not given),inconclusive: 26%
21,O=C(Cn1c(=O)c2sccc2n(Cc2cccc(Cl)c2)c1=O)NCc1ccco1,inconclusive: 12%
22,CCOC(=O)C1=NN(c2cccc(Cl)c2)C2C(=O)N(c3ccc(C)cc3)C(=O)C12 (stereo not given),inactive
23,COc1cc(-c2ccc(C)c(C)n2)cc(OC)c1OC,inconclusive: 16%
24,COc1ccc(-n2c(=O)c3c(C)c(C)sc3n(CC(=O)NCc3ccccc3)c2=O)c(OC)c1,inactive
25,CC(=O)Nc1ccc(C2=N/C(=C/c3ccccc3)C(=O)O2)cc1,inconclusive: 14%

# Looked up by compound from above, two records:
row,SMILES,inhibition
16,CCCCCCCC/C=C\CCCCCCCC(=O)NCCc1ccc(O)c(O)c1,inconclusive: 18%
20,O=C(Nc1cccc(-n2cccn2)c1)C1CCCN(Cc2ccc3c(c2)CCO3)C1 (stereo not given),inconclusive: 26%
